For this assay, the target named is Sec61β fused to GFP (UniProt P60468). Description: co-IP; GFP-Trap precipitation of lysates of transfected C2C12 cells; precipitates blotted with antibodies against β-DG.

The chains behind the UniProt entries cited, without tags or fusion partners.
UniProt P60468: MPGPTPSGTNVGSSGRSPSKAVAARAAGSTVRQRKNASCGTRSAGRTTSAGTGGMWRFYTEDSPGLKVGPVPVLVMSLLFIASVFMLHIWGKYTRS

These are yes or no findings as the source states them, for the method shown. In cells and extracts the contact can be indirect. Some results given as binding are weak or reduced against the parent protein; the word gives no strength.

B1: β-Dystroglycan (protein, UniProt Q62165 652-893)
chain: SIVVEWTNNTLPLEPCPKEQIIGLSRRIADENGKPRPAFSNALEPDFKALSIAVTGSGSCRHLQFIPVAPPSPGSSAAPATEVPDRDPEKSSEDDVYLHTVIPAVVVAAILLIAGIIAMICYRKKRKGKLTLEDQATFIKKGVPIIFADELDDSKPPPSSSMPLILQEEKAPLPPPEYPNQSMPETTPLNQDTVGEYTPLRDEDPNAPPYQPPPPFTAPMEGKGSRPKNMTPYRSPPPYVPP
Turning to B1, the binding entry is given as “binds”.

For the origin of these results see paper PMC5575308.
